PubChem BioAssay AID1259254 – NCATS – 2017
Here is one part, drawn at random, of about 59,000 reagents. About 1,550 of them (2.6%) count as active. 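G2 share is only a proxy for re-replication; each gene was hit by three separate siRNAs, and active genes were retested.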 Not all columns of the deposit are shown. Not stated in the record: the amount of reagent.

Test: 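Finding genes that stop cells copying their DNA twice in one cycle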 (primary screen)
Cell system: human HCT116 colorectal cancer cells
Reagents: single siRNA against human genes
Time to read-out: 3 days
Detection: 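Imaged Hoechst DNA stain sorts each cell into a cycle phase by DNA amount; per plate, G2 fraction set to 0% for non-targeting and 100% for GMNN siRNA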
Reading the numbers: G2 robust z-score and G2 cells, % of GMNN control: higher = more G2 cells, more excess DNA replication
Rule for the call: 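Active siRNAs have a G2 robust z of 5 or more median absolute deviations over the median, which in these data means about 38% or higher of GMNN control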

Against OR1Q1 [SID160759598], the entry reads G2 robust z-score 6.51; G2 cells, % of GMNN control 48.8; active. OR1Q1 [SID160759599] showed G2 robust z-score -1.11; G2 cells, % of GMNN control -4.86; inactive. Knock-down of OR1Q1 [SID160759600] came out at: G2 robust z-score -0.106; G2 cells, % of GMNN control 2.22; inactive. After knock-down of GPR155 [SID160759125], the record shows G2 robust z-score 1.26; G2 cells, % of GMNN control 11.9; inactive. GPR155 [SID160759126] scored G2 robust z-score -0.118; G2 cells, % of GMNN control 2.14; inactive. For GPR155 [SID160759127], the entry reads G2 robust z-score -0.158; G2 cells, % of GMNN control 1.86; inactive.

STOM [SID160732674] showed G2 robust z-score 0.131; G2 cells, % of GMNN control 3.89; inactive. Knock-down of STOM [SID160760775] gave: G2 robust z-score -0.413; G2 cells, % of GMNN control 0.0587; inactive. STOM [SID160760786] scored G2 robust z-score -1.1; G2 cells, % of GMNN control -4.78; inactive. GPR19 [SID160773304] gave G2 robust z-score 6.12; G2 cells, % of GMNN control 46; active. GPR19 [SID160773314] gave G2 robust z-score -0.0462; G2 cells, % of GMNN control 2.64; inactive. For GPR19 [SID160773322], the entry reads G2 robust z-score 2.23; G2 cells, % of GMNN control 18.7; inactive.

After knock-down of GFRA3 [SID160770593] the results were G2 robust z-score -0.951; G2 cells, % of GMNN control -3.73; inactive. Silencing of GFRA3 [SID160770600] came out at: G2 robust z-score 17; G2 cells, % of GMNN control 122; active. After knock-down of GFRA3 [SID160770607], the record shows G2 robust z-score 1.96; G2 cells, % of GMNN control 16.8; inactive.

Entries above with an active call:
OR1Q1 [SID160759598]: G2 robust z-score = 6.51; G2 cells, % of GMNN control = 48.8; activity call = active
GPR19 [SID160773304]: G2 robust z-score = 6.12; G2 cells, % of GMNN control = 46; activity call = active
GFRA3 [SID160770600]: G2 robust z-score = 17; G2 cells, % of GMNN control = 122; activity call = active

Further entries follow:
LSS [SID160760817] gave G2 robust z-score 2.53; G2 cells, % of GMNN control 20.8; inactive. Knock-down of LSS [SID160760918] came out at: G2 robust z-score -0.549; G2 cells, % of GMNN control -0.893; inactive. LSS [SID160761021] scored G2 robust z-score -0.3; G2 cells, % of GMNN control 0.858; inactive. Silencing of RPL18AP16 [SID160733128] resulted in: G2 robust z-score 2.02; G2 cells, % of GMNN control 17.2; inactive. RPL18AP16 [SID160764999] gave G2 robust z-score 3.13; G2 cells, % of GMNN control 25; inactive. Against RPL18AP16 [SID160765000], the values are G2 robust z-score 8.55; G2 cells, % of GMNN control 63.1; active.

After knock-down of RBM45 [SID160756899] the results were G2 robust z-score 2.65; G2 cells, % of GMNN control 21.6; inactive. For RBM45 [SID160756900] the deposit lists G2 robust z-score -0.328; G2 cells, % of GMNN control 0.663; inactive. RBM45 [SID160756901] showed G2 robust z-score 2.13; G2 cells, % of GMNN control 18; inactive.
